Data as given in PubChem BioAssay AID1259308 (NCATS, 2017)
In all, the deposit lists about 59,000 reagents; this is a part drawn at random. About 1,510 of all reagents (2.6%) count as active. 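Calls use total luciferase alone and ignore viability, so some active siRNAs may act by altering cell number.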 The numbers tell different reagents against one gene apart. Further read-outs or replicates are left out here. No sequences are given here.

Purpose: 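Genes whose loss raises luciferase production in HEK293 cells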 (primary screen)
Cell system: human HEK293 embryonic kidney cells stably expressing firefly luciferase (HEK-CMV-Luc2-Hygro)
Knock-down reagent: single siRNA against human genes, 0.8 pmol siRNA per well
Time to read-out: 72 h
Detection: 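Reporter luminescence and viable-cell signal on separate replicate plates, given as percent of non-targeting control and median/MAD z-scores, plus per-cell luciferase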
Direction: total luciferase, z-score and total luciferase, % of control: higher = more reporter protein produced
Rule for the call: 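Active when the median/MAD z-score for overall luciferase is greater than 3; a gene was taken forward for validation with new siRNAs if at least two of its three siRNAs passed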
Calls: active = raised luciferase; inactive = no rise

Against IFT52 (GeneID 51098) #1, the entry reads total luciferase, z-score 0.556; total luciferase, % of control 92.9; inactive.
For IFT52 (GeneID 51098) #2, the entry reads total luciferase, z-score -0.206; total luciferase, % of control 77.8; inactive.
For IFT52 (GeneID 51098) #3 the deposit lists total luciferase, z-score 0.604; total luciferase, % of control 93.9; inactive.
Against KRTAP11-1 (GeneID 337880) #1 the deposit lists total luciferase, z-score -1.14; total luciferase, % of control 59.3; inactive.
Silencing of KRTAP11-1 (GeneID 337880) #2 came out at: total luciferase, z-score -0.251; total luciferase, % of control 76.9; inactive.
Silencing of KRTAP11-1 (GeneID 337880) #3 gave: total luciferase, z-score -1; total luciferase, % of control 61.9; inactive.
Depletion of POMC (GeneID 5443) #1 came out at: total luciferase, z-score -0.856; total luciferase, % of control 64.9; inactive.
With knock-down of POMC (GeneID 5443) #2, the record shows total luciferase, z-score -0.636; total luciferase, % of control 69.2; inactive.
POMC (GeneID 5443) #3 scored total luciferase, z-score -1.52; total luciferase, % of control 51.7; inactive.
After knock-down of SLC5A10 (GeneID 125206) #1, the screen gave total luciferase, z-score -1.12; total luciferase, % of control 59.6; inactive.
Knock-down of SLC5A10 (GeneID 125206) #2 came out at: total luciferase, z-score -0.0196; total luciferase, % of control 81.5; inactive.
Knock-down of SLC5A10 (GeneID 125206) #3 came out at: total luciferase, z-score -2.2; total luciferase, % of control 38.1; inactive.
With knock-down of CRYGA (GeneID 1418) #1, the record shows total luciferase, z-score -0.465; total luciferase, % of control 72.6; inactive.
Against CRYGA (GeneID 1418) #2, the entry reads total luciferase, z-score 1.8; total luciferase, % of control 118; inactive.
With knock-down of CRYGA (GeneID 1418) #3, the screen gave total luciferase, z-score 2.77; total luciferase, % of control 137; inactive.

In a second layout: results already given.
{"gene":"IFT52 (GeneID 51098)","reagent no.":1,"total luciferase, z-score":0.556,"total luciferase, % of control":92.9,"outcome":"inactive"}
{"gene":"IFT52 (GeneID 51098)","reagent no.":2,"total luciferase, z-score":-0.206,"total luciferase, % of control":77.8,"outcome":"inactive"}
{"gene":"IFT52 (GeneID 51098)","reagent no.":3,"total luciferase, z-score":0.604,"total luciferase, % of control":93.9,"outcome":"inactive"}
{"gene":"KRTAP11-1 (GeneID 337880)","reagent no.":1,"total luciferase, z-score":-1.14,"total luciferase, % of control":59.3,"outcome":"inactive"}
{"gene":"KRTAP11-1 (GeneID 337880)","reagent no.":2,"total luciferase, z-score":-0.251,"total luciferase, % of control":76.9,"outcome":"inactive"}

Next records:
For MFAP3L (GeneID 9848) #1 the deposit lists total luciferase, z-score -1.81; total luciferase, % of control 45.9; inactive.
Knock-down of MFAP3L (GeneID 9848) #2 gave: total luciferase, z-score -1.22; total luciferase, % of control 57.7; inactive.
Silencing of MFAP3L (GeneID 9848) #3 gave: total luciferase, z-score -1.98; total luciferase, % of control 42.4; inactive.
Knock-down of DEF8 (GeneID 54849) #1 gave: total luciferase, z-score 3.19; total luciferase, % of control 145; active.
Against DEF8 (GeneID 54849) #2, the values are total luciferase, z-score -0.228; total luciferase, % of control 77.4; inactive.
Depletion of DEF8 (GeneID 54849) #3 came out at: total luciferase, z-score 0.563; total luciferase, % of control 93.1; inactive.
Knock-down of PORCN (GeneID 64840) #1 gave: total luciferase, z-score 0.793; total luciferase, % of control 97.7; inactive.
Depletion of PORCN (GeneID 64840) #2 gave: total luciferase, z-score -0.349; total luciferase, % of control 74.9; inactive.
With knock-down of PORCN (GeneID 64840) #3 the results were total luciferase, z-score 0.755; total luciferase, % of control 96.9; inactive.
INO80C (GeneID 125476) #1 gave total luciferase, z-score -1.1; total luciferase, % of control 60.1; inactive.
Depletion of INO80C (GeneID 125476) #2 resulted in: total luciferase, z-score -0.338; total luciferase, % of control 75.2; inactive.
INO80C (GeneID 125476) #3 scored total luciferase, z-score -0.116; total luciferase, % of control 79.6; inactive.
Knock-down of TRIM21 (GeneID 6737) #1 resulted in: total luciferase, z-score 0.505; total luciferase, % of control 91.9; inactive.
After knock-down of TRIM21 (GeneID 6737) #2 the results were total luciferase, z-score -0.214; total luciferase, % of control 77.6; inactive.
TRIM21 (GeneID 6737) #3 gave total luciferase, z-score -0.371; total luciferase, % of control 74.5; inactive.
PRPSAP2 (GeneID 5636) #1 scored total luciferase, z-score -0.416; total luciferase, % of control 73.6; inactive.
For PRPSAP2 (GeneID 5636) #2, the entry reads total luciferase, z-score -0.855; total luciferase, % of control 64.9; inactive.
PRPSAP2 (GeneID 5636) #3 scored total luciferase, z-score 0.263; total luciferase, % of control 87.1; inactive.
